# In paper PMC4899803:
# Chains of the proteins cited; added tags and fusions are not shown. Lines headed by an entry give the natural chain unless they say otherwise; changes in a name come on top.
# UniProt P0ABJ9: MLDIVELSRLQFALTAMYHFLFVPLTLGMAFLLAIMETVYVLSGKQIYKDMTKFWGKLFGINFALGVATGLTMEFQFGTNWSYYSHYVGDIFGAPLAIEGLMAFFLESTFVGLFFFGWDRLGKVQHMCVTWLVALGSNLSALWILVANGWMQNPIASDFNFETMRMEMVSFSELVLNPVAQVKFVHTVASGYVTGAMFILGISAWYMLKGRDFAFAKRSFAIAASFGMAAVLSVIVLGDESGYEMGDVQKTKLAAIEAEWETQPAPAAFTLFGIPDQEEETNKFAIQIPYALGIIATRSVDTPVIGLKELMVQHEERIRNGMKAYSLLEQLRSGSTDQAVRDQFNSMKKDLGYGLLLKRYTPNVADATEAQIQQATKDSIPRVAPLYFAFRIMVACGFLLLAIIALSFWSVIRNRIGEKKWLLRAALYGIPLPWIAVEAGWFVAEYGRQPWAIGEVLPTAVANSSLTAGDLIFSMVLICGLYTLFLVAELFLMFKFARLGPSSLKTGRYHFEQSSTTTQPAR
# Molecular target: CydA with C-terminal His6-tag (subunit of cytochrome bd from Escherichia coli) (E. coli) (UniProt P0ABJ9)
# Experiment: affinity purification with mass spectrometry; His6-tagged cytochrome bd (tag on CydA) purified over HisTrap Nickel column and Superdex 200, loaded on Native-PAGE, band excised, in-gel digestion with trypsin, chymotrypsin or GluC, LC-MS/MS
binder,measurement,value
MWYFAWILGTLLACSFGVITALALEHVESGKAGQEDI [CydX from E. coli],binding,binds

# These are yes or no findings as the source states them, for the method shown. Binding seen in cells or lysates may run through a third protein. These calls come from enrichment with a bait or labelling near it, and not all partners need be listed.
